These are yes or no findings as the source states them, for the method shown. Binding seen in cells or lysates may run through a third protein. A yes stands for co-enrichment or nearness to the bait. Other partners may have been found.
molecular target: human glucocorticoid receptor alpha (GRα), expressed in S. pombe (human) (UniProt P04150); assay: affinity purification with mass spectrometry; anti-GR antibody on epoxy-activated magnetic beads; lysates of S. pombe expressing hGRα (empty vector as control) grown at 30 °C or 39 °C (heat shock 30 min); lysis buffer 250 mM NaCl, 20 mM Tris pH 7.5, 1% Triton X-100, 100 mM potassium acetate; 4 °C, 1 hour, 6 washes; SDS-PAGE and LC-MS/MS

By UniProt entry, the sequences of proteins in these tests, tags left out. Where a name states a change or a piece, a line headed by the entry shows the natural chain unless it says otherwise.
UniProt P04150: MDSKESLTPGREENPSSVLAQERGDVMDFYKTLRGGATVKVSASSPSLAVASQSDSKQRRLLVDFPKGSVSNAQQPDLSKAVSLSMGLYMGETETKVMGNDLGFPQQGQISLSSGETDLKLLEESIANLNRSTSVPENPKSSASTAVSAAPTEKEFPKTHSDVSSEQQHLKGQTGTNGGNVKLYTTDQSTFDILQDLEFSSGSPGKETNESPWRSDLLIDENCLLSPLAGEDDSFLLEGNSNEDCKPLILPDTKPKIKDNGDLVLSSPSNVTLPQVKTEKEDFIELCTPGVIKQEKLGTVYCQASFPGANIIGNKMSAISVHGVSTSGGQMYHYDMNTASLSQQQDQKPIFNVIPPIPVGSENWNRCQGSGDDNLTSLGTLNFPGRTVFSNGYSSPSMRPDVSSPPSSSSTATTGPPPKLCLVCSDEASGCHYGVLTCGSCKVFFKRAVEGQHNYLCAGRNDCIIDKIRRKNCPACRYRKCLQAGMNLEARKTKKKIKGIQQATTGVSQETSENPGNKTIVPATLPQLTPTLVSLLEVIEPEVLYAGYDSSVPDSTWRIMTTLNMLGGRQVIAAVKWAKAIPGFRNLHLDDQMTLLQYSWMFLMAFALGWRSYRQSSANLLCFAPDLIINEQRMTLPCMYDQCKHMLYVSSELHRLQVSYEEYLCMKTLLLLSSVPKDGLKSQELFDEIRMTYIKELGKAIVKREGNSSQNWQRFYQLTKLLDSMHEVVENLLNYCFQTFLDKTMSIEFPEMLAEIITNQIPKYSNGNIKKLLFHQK
UniProt P0CT75: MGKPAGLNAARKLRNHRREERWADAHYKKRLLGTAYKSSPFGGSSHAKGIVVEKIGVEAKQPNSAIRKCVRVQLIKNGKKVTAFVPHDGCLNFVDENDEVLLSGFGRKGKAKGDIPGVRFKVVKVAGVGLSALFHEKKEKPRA
UniProt P42657: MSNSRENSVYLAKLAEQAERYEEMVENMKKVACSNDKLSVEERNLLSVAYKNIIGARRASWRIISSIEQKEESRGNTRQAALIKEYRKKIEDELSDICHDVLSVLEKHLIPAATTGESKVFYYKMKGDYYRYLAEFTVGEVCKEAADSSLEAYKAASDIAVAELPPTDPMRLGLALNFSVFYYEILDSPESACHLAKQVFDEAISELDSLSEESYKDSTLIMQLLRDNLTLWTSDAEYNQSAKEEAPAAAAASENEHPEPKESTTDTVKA
UniProt Q9UUG0: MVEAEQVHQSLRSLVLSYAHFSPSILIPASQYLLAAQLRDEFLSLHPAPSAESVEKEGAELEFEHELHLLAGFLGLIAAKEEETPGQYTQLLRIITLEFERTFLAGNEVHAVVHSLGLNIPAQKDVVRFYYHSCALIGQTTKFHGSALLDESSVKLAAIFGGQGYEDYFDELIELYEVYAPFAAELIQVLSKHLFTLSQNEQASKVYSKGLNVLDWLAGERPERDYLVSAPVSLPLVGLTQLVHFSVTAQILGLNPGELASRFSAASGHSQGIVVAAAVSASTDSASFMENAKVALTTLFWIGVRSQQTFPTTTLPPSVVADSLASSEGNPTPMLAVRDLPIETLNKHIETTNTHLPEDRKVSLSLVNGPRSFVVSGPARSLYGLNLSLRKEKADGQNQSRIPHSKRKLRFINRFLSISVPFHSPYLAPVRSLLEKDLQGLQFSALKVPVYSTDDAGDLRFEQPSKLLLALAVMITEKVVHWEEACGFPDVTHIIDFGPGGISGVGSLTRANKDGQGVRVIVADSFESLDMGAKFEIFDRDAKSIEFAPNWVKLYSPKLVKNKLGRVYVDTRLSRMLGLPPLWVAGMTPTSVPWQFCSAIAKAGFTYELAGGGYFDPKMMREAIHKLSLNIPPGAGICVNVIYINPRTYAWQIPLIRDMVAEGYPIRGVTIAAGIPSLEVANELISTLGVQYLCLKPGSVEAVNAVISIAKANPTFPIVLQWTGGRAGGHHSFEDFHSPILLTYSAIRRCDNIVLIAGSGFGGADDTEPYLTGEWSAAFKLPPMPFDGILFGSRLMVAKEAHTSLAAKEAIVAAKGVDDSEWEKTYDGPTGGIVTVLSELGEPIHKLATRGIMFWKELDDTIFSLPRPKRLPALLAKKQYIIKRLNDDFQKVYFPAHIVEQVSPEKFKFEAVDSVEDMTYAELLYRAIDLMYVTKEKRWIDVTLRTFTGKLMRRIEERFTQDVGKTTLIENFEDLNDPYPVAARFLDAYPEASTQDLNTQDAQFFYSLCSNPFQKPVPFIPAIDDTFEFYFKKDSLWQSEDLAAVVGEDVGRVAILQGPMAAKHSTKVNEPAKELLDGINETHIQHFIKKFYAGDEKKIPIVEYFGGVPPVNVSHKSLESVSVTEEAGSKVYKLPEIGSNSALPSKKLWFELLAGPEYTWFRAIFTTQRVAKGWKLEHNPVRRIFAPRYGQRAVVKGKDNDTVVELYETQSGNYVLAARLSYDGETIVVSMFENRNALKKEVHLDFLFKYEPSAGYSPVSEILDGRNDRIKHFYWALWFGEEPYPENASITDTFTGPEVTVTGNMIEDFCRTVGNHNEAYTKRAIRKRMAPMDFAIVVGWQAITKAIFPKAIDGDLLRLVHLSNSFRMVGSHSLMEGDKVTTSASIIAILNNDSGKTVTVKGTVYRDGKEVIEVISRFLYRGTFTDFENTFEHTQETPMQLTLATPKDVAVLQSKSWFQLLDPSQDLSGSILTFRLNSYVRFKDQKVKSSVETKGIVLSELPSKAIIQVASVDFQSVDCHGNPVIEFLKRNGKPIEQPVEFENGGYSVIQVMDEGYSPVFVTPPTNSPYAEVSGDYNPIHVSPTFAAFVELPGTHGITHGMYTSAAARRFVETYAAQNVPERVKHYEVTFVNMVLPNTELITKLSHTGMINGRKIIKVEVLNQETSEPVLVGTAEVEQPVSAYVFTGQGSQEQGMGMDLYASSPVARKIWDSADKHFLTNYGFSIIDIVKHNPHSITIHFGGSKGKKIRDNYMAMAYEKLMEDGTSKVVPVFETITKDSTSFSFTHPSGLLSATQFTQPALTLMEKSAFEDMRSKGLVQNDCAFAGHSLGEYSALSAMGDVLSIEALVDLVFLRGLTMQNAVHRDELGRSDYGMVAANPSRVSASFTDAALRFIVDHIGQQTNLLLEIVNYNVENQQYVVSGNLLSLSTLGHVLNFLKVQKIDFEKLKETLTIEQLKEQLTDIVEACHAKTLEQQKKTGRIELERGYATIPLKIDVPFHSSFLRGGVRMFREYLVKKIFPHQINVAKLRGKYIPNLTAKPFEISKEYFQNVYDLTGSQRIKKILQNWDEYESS
UniProt O94657: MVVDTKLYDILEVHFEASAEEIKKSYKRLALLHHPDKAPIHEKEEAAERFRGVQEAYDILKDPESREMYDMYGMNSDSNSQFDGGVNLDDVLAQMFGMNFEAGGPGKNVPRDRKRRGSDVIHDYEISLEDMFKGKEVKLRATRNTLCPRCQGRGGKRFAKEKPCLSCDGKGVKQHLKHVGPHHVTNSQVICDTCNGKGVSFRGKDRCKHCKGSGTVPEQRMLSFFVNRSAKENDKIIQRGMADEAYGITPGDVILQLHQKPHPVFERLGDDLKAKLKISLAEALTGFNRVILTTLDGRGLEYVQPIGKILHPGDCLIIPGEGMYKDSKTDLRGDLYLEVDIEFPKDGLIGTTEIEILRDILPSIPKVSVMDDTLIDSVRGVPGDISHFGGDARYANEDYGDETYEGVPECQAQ
UniProt O42945: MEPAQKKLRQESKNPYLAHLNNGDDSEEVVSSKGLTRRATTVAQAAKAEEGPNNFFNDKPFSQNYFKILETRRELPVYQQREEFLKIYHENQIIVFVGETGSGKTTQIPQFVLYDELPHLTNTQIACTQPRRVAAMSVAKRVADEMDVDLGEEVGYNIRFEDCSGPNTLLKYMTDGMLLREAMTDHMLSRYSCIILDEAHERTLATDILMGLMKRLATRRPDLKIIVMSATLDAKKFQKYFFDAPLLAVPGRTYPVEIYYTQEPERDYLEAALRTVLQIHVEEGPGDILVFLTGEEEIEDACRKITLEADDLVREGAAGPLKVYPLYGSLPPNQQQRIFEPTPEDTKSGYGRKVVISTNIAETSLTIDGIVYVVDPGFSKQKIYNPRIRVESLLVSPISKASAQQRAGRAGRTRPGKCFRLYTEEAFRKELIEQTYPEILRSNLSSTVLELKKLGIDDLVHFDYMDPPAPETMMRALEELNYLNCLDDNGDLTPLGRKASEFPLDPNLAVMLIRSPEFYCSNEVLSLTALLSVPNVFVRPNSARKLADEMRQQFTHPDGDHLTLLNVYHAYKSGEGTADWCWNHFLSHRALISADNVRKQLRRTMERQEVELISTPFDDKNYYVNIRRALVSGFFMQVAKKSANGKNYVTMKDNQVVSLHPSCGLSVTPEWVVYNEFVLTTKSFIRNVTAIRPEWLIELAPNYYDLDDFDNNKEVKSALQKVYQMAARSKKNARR
UniProt P36612: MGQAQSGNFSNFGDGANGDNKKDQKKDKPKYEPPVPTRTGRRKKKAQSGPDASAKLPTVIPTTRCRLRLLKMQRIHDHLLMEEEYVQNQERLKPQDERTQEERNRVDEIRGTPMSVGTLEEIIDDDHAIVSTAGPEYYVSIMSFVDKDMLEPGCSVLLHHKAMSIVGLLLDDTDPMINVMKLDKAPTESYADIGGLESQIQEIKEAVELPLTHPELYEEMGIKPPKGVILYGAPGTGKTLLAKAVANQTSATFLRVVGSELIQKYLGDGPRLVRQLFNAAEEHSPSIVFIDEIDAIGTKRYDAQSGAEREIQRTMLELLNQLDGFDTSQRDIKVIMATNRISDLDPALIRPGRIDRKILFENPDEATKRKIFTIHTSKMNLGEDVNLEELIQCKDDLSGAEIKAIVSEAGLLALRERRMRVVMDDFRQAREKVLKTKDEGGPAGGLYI
UniProt Q10107: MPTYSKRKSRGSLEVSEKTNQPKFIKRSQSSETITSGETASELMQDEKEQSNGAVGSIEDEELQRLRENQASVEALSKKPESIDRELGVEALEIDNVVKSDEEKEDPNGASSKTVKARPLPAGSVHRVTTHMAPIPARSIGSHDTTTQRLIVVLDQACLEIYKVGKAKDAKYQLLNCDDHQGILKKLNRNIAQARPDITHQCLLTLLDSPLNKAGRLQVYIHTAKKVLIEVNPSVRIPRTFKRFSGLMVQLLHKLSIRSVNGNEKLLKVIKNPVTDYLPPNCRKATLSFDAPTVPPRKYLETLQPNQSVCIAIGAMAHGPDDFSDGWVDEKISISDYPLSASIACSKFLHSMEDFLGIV
UniProt P47943: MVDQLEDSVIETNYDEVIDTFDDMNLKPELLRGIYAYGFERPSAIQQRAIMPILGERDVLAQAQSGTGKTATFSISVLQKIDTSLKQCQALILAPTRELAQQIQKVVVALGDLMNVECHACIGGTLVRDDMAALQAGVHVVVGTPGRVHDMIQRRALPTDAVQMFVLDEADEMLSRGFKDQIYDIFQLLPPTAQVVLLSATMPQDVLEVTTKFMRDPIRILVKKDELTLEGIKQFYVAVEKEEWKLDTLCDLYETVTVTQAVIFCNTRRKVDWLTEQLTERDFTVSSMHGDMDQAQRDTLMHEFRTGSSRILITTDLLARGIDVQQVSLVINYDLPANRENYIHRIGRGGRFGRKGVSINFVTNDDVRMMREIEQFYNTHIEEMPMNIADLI
UniProt P42656: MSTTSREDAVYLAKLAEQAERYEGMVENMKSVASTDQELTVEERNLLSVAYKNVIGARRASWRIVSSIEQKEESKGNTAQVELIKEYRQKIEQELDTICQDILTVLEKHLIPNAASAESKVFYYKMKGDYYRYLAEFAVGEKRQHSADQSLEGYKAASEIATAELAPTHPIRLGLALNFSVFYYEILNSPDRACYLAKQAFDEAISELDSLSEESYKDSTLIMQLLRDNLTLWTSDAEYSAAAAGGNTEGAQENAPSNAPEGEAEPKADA
UniProt O74752: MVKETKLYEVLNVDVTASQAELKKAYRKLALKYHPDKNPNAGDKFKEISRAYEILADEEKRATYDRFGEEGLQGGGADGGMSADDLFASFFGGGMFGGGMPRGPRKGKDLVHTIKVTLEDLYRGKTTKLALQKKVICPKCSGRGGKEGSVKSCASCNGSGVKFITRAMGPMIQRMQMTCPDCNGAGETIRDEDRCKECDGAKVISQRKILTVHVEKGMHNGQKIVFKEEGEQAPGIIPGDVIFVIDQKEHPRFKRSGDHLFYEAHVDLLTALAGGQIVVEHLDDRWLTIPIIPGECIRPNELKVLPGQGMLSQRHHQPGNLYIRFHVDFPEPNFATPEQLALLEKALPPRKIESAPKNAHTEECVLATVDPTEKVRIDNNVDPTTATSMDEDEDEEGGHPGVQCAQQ

binding, binds:
rps23 (from UniProt P0CT75 1-143)
rad25 (from UniProt P42657 1-270)
AAA family ATPase involved in ubiquitin-mediated protein degradation Cdc48 (from UniProt Q9P3A7 1-809)
fas1 (from UniProt Q9UUG0 1-2073)
DNAJ protein Xdj1 (from UniProt O94657)
hhp1 (from UniProt P40235 1-365)
prp43 (from UniProt O42945 1-735)
19 S proteasome regulatory subunit Rpt2 (from UniProt P36612 1-448)
Mra1 (from UniProt Q10107 1-359)
eIF4A (from UniProt P47943 1-392)
rad24 (from UniProt P42656 1-270)
epe1 (from UniProt O94603 1-948)
DNAJ domain protein Mas5 chaperone (from UniProt O74752 1-407)

Reference: paper PMC5608759
